Test results from PubChem BioAssay AID488840 (Broad Institute, 2010).
Hit rate of the full screen: of about 1,400 compounds, about 45 (3%) were called active.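 How the source made its calls: active means half-maximal dose of signal decrease from fit no higher than ten times the top valid tested dose; inconclusive means fit invalid, or curve flat with 30 to 70% inhibition; inactive means the rest.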 The list shows a part of the results. Measured potencies and affinities stand elsewhere.

Protein sequences, listed by entry. Tags and fused reporters are not part of them. Lines headed by an entry give the natural chain unless they say otherwise; changes in a name come on top.
UniProt O75164: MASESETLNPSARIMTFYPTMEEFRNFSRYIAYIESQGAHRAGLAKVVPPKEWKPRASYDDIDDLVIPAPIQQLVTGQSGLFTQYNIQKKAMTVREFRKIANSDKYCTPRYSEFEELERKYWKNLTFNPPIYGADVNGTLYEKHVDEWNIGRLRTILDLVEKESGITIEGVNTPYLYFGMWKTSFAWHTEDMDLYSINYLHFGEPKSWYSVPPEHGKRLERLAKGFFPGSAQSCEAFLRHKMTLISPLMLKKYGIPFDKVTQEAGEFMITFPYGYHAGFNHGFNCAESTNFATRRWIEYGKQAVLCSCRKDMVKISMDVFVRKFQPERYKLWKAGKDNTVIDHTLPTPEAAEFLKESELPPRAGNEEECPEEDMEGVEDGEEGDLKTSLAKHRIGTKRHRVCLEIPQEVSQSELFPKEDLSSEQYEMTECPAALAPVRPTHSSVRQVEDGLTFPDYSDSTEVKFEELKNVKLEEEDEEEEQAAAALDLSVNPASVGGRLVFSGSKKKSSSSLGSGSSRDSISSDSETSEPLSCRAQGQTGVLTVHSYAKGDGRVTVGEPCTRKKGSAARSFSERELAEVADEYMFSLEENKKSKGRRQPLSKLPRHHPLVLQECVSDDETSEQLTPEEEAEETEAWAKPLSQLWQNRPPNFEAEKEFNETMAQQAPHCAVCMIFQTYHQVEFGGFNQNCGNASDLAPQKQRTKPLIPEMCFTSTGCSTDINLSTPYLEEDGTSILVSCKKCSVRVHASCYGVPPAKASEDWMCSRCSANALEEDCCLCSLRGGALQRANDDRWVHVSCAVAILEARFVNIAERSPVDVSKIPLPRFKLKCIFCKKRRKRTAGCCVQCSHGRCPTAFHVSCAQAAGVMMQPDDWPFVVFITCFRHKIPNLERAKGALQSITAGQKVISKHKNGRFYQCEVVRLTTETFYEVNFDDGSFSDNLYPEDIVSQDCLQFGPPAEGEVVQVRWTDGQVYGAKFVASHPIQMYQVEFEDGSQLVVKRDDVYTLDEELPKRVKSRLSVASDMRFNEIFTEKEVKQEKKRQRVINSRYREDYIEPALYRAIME

Each compound was assayed against Lysine-specific demethylase 4A (Homo sapiens) (UniProt O75164) (assay: JMJD2A histone demethylase inhibitors, dose response, selectivity assay for GASC-1 inhibitor project, biochemical, DELFIA europium, cherry-picked samples (AID 488840;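 further: europium signal reports the dimethyl H3K9 product detected by antibody so inhibitors lower it; 0% = median of neutral control wells and -100% = median of positive control wells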)). Settings: GST-JMJD2A(1-420) H3K9me3 demethylation; at 6 µM (top of the series) unless noted.

Activity change, negative = inhibition, inactive:
Cc1cccn2c(=O)c(/C=N/O)c(N3CCCC3)nc12 -2.96%, CN(C)/C=C1/Nc2ccccc2C1=O 3.33%, CC1CCCC(NC(=O)COC(=O)c2ccc(N(C)C)cc2)C1C (centres undefined) -4.03%, C[C@H](CO)N1C[C@H](C)[C@@H](CN(C)Cc2ccc(C(=O)O)cc2)Oc2c(NC(=O)c3ccncc3)cccc2C1=O 2.71%, COC(=O)[C@]1(Cc2ccccc2)N[C@H](CN(C)S(=O)(=O)c2ccc(-c3ccccc3)cc2)[C@@H]2C(=O)N(C)C(=O)[C@@H]21 -0.613%, Cc1nnc(SCC(=O)Nc2sccc2C(N)=O)n1Cc1ccccc1 8.28%, CCC(C)(C)NC(=O)C(c1ccc(C)o1)N(Cc1cccs1)C(=O)Cn1nnc2ccccc21 (centres undefined) -1.28%, Clc1ccc(N=c2ssnc2Cl)nc1 -2.24%, OCc1csc(=Nc2ccccc2)n1-c1ccccc1 5.61%, CS(=O)(=O)N(CC(=O)Nc1ccccc1C(=O)NCCc1ccccc1)c1ccc2c(c1)OCCO2 0.741%, O=c1oc2ccccc2cc1-c1nc(-c2cccs2)cs1 -0.264%, CC(C)Cn1c(N)c(C(=O)COC(=O)c2c(O)c(Cl)cc(Cl)c2Cl)c(=O)n(C)c1=O 3.81%, Cc1c(Cl)c(-c2n[nH]c(=S)n2-c2ccc(F)cc2)nn1C -13%, COc1cc(OC)cc(C(=O)Nc2ccc(-n3cnnn3)c(C)c2)c1 0.0409%, Cc1ccc(C)c(N2CCN(C(=O)Cn3ncc4c([nH]c5ccc(C)cc54)c3=O)CC2)c1 6.03%, COc1ccc(/C=N/N=C2\CC3CCC2(C)C3(C)C)cc1O (centres undefined) 0.844%, CCOC(=O)N1CCN(C(=S)NC(=O)c2ccc(F)cc2)CC1 -5.79%, COc1ccc(/C=C2/CC/C(=C\c3ccc(OC)c(OC)c3OC)C2=O)c(OC)c1OC -0.189%, CC(C)(C)n1ncc2c(=O)n(Cc3ccccc3Br)cnc21 4.21%, Cc1ccc(S(=O)(=O)NCCC(=O)Oc2ccc3ccc(=O)oc3c2)cc1 -3.57%, C=CCn1c(O)c(N=Nc2ccccc2C)c2ccccc21 -6.46%, Oc1ccc(Br)cc1/C=N/Nc1nc(N2CCCCC2)nc(N2CCOCC2)n1 -3.41%, Cc1ccc(OCCSc2nnc(-c3cccs3)n2C)cc1 -1.32%, CC[C@@H]1C=C(C(=O)O)[C@H](c2ccc(C)cc2)N1S(=O)(=O)c1ccc(C)cc1 -2.45%
